# Measured values published in article PMC2614481.
# Results are given in words; binding and its absence hold for the method and conditions named. In cells and extracts the contact can be indirect. These calls come from enrichment with a bait or labelling near it, and not all partners need be listed.
# T1: Sc_Rpd3p (S. cerevisiae) (UniProt P32561)
# T1 sequence: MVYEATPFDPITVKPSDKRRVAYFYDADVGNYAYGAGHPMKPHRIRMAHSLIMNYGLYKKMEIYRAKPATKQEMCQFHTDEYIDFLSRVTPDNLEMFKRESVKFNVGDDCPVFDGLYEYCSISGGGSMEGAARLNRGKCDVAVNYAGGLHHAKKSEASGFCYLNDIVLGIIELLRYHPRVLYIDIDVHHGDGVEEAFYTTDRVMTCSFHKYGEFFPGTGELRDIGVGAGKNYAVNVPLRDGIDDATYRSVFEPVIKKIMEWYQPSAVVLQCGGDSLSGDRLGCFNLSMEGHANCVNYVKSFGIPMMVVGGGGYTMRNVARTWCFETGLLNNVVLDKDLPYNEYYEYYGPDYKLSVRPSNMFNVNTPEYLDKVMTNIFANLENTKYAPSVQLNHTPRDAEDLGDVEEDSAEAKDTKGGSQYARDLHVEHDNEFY
# T2: YAF9 (S. pombe) (S. pombe) (UniProt Q10319)
# T2 sequence: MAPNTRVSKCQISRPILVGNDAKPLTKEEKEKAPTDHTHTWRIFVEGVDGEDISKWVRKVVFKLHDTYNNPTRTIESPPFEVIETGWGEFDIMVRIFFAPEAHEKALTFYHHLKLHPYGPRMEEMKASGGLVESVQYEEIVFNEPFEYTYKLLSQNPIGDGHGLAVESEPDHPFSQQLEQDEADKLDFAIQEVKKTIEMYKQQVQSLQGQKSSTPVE
# T3: SWC4 (S. pombe) (S. pombe) (UniProt O14308)
# T3 sequence: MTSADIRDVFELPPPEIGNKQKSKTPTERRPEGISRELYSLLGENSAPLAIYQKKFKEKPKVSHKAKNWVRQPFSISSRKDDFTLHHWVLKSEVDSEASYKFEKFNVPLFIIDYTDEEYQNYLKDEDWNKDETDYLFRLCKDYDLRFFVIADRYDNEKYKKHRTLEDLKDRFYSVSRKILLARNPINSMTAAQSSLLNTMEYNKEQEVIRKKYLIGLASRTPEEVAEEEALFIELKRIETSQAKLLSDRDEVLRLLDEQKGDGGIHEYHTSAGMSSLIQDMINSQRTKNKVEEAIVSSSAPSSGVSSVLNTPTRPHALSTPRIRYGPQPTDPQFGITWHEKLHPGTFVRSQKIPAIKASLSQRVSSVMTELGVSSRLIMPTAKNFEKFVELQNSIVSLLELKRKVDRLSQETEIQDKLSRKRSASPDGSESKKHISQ
# Biological target: T1, Sc_Rpd3p (S. cerevisiae)
# Assay: affinity purification with mass spectrometry; TAP of baits TAP-tagged at their genes from S. cerevisiae extracts; eluates on 6-18% gels, Coomassie, bands and slices identified by MALDI peptide mapping and LC-MS/MS; common background removed, A-index cut-off 1.75
row,Binder,binding
1,"SDS3 (S. cerevisiae) (protein, UniProt P40505 1-327) MAIQKVSNKDLSRKDKRRFNIESKVNKIYQNFYSERDNQYKDRLTALQTDLTSLHQGDNGQYARQVRDLEEERDLELVRLRLFEEYRVSRSGIEFQEDIEKAKAEHEKLIKLCKERLYSSIEQKIKKLQEERLLMDVANVHSYAMNYSRPQYQKNTRSHTVSGWDSSSNEYGRDTANESATDTGAGNDRRTLRRRNASKDTRGNNNNQDESDFQTGNGSGSNGHGSRQGSQFPHFNNLTYKSGMNSDSDFLQGINEGTDLYAFLFGEKNPKDNANGNEKKKNRGAQRYSTKTAPPLQSLKPDEVTEDISLIRELTGQPPAPFRLRSD",binds
2,"RXT3 (S. cerevisiae) (protein, UniProt Q07458 1-294) MSVSEQDPNRAYRETQSQIYKLQETLLNSARTKNKQEEGQESNTHSFPEQYMHYQNGRNSAYDLPNVSSQSVLAFTEKHYPNKLKNLGTLYYNRFKEGSFDEDSTSYSDRHSFPYNLYDNTLPPPFLPAIGIQNINNIATLKITYEDIQASFNNIESPRKRNNEIWGCDIYSDDSDPILVLRHCGFKIGAPSGGSFHKLRRTPVNVTNQDNVTGNLPLLEGTPFDLEVELLFLPTLQKYPSVKRFDITSREWGSEATVIHDGLSYGIYSIVIKQRLDRDKPHEPNGYIKNLKWT",binds
3,"Sc_Rco1 (protein, UniProt Q04779 1-684) MDTSKKDTTRSPSHSNSSSPSSSSLSSSSSKEKKRPKRLSSQNVNYDLKRRKIITSEGIERSFKNEHSNLAVEDNIPEEEPKELLEKDSKGNIIKLNEPSTISEDSKVSVTGLPLNKGPSEKIKRESLWNYRKNLGGQSNNSEMTLVPSKRFTQVPKNFQDLNRNDLKTFLTENMTEESNIRSTIGWNGDIINRTRDREPESDRDNKKLSNIRTKIILSTNATYDSKSKLFGQNSIKSTSNASEKIFRDKNNSTIDFENEDFCSACNQSGSFLCCDTCPKSFHFLCLDPPIDPNNLPKGDWHCNECKFKIFINNSMATLKKIESNFIKQNNNVKIFAKLLFNIDSHNPKQFQLPNYIKETFPAVKTGSRGQYSDENDKIPLTDRQLFNTSYGQSITKLDSYNPDTHIDSNSGKFLICYKCNQTRLGSWSHPENSRLIMTCDYCQTPWHLDCVPRASFKNLGSKWKCPLHSPTKVYKKIHHCQEDNSVNYKVWKKQRLINKKNQLYYEPLQKIGYQNNGNIQIIPTTSHTDYDFNQDFKITQIDENSIKYDFFDKIYKSKMVQKRKLFQFQESLIDKLVSNGSQNGNSEDNMVKDIASLIYFQVSNNDKSSNNKSASKSNNLRKLWDLKELTNVVVPNELDSIQFNDFSSDEIKHLLYLKKIIESKPKEELLKFLNIENPENQSE",binds
4,"SAP30 (S. cerevisiae) (protein, UniProt P38429 1-201) MARPVNTNAETESRGRPTQGGGYASNNNGSCNNNNGSNNNNNNNNNNNNNSNNSNNNNGPTSSGRTNGKQRLTAAQQQYIKNLIETHITDNHPDLRPKSHPMDFEEYTDAFLRRYKDHFQLDVPDNLTLQGYLLGSKLGAKTYSYKRNTQGQHDKRIHKRDLANVVRRHFDEHSIKETDCIPQFIYKVKNQKKKFKMEFRG",binds
5,"DEP1 (S. cerevisiae) (protein, UniProt P31385 1-405) MSQQTPQESEQTTAKEQDLDQESVLSNIDFNTDLNHNLNLSEYCISSDAGTEKMDSDEEKSLANLPELKYAPKLSSLVKQETLTESLKRPHEDEKEAIDEAKKMKVPGENEDESKEEEKSQELEEAIDSKEKSTDARDEQGDEGDNEEENNEEDNENENEHTAPPALVMPSPIEMEEQRMTALKEITDIEYKFAQLRQKLYDNQLVRLQTELQMCLEGSHPELQVYYSKIAAIRDYKLHRAYQRQKYELSCINTETIATRTFIHQDFHKKVTDLRARLLNRTTQTWYDINKERRDMDIVIPDVNYHVPIKLDNKTLSCITGYASAAQLCYPGEPVAEDLACESIEYRYRANPVDKLEVIVDRMRLNNEISDLEGLRKYFHSFPGAPELNPLRDSEINDDFHQWAQ",binds
6,"Sc_Ume1p (protein, UniProt Q03010 1-460) MSTLDIAEDNKIKNEEFKIWKKSIPSLYQHISSLKPIFGSGVDESPSTLRSIVFTNDSSCNKSKGVLSVPLLYSQGSEIFEVDCIVPLGLHYKKPESISEPLVQPDYTMESQKVEQTVLIPKWEFKGETIAKMIYVDNSEINVKVIALSTNGSLAWFREGVKSPVYTMMEPSTSLSSASSGNQNKPCVDFAISNDSKTLTVTKEKHLDNENATIKLIDNSGKIGEVLRTIPVPGIKNIQEIKFLNNQIFATCSDDGIIRFWGNEIGKKPLWILNDSLDGKTTCFAASPFVDTLFMTGTSGGALKVWDIRAVIALGDADAELNINQGHNKVNELFKVHHFYSEQVSKIEFSSISPMEVVTIGGLGNVYHWNFEPVFAIYNEIHEDFQGIISDELEAESMAFYHTEGCRREIGENNKVNTVAYHKYIEDLVATVDSDGLLTVYKPFTGKVLDGSREVGAAKS",binds

# The remaining lines, values ahead:
row,binding,Binder
1,binds,"Sc_Cti6 (protein, UniProt Q08923 1-506) MESTAIVPKGPVVGSEDMEKAEVIASGSTDIISTTSTATTTAAIGSVQEESVKQEDVPMEGGEGEVEEEEGETRCICGELDTPDDSGFFIQCEQCSSWQHGYCVSITQDNAPDKYWCEQCRPELHQLFTTDTGEARSIYKPVQEKRRQSRRKARSAAASKSHAANEAEKSPRNTSNTDDNVDDIGDEEDEVEDEASAVALAKDGNTRSSRRRRRNSMDDASTDQYSLDPGDSDKKLLDRKRATFMAREEKQYQRMLEKALKESRRTSHQEDPESYENDADIYQGDTDNHNGTTRLQTDVMLTEGKPDSVTNDDMKESLRPSKEQSMEKTNDVEKEASQEKESSTGSAQDTEKTDEPILPLTSISSSEDDSRKASSRGSKRVSKPARKGNRTRRSNTSSDTNQNRRSADIGTDKPVKPRLPPQRTSLNEMRRRVSAILEFISRTQWELSEDQSDREEFVRFVENQHFVEKVDTIYNGYNESLSMMDDLTRELLLWEKKYSNNTNAIQ"
2,binds,"Sc_Pho23 (protein, UniProt P50947 1-330) MSSPANLFPGLNDITDVLEEFPLATSRYLTLLHEIDAKCVHSMPNLNERIDKFLKKDFNKDHQTQVRLLNNINKIYEELMPSLEEKMHVSSIMLDNLDRLTSRLELAYEVAIKNTEIPRGLRLGVDNHPAMHLHHELMEKIESKSNSKSSQALKSESRREAMAANRRQGEHYSASTHQQDDSKNDANYGGSRHESQDHTGNNTNSRKRANAANTNNADPETKKRKRRVATTAVSPSTISTATAVNNGRIGTSTASRGVSSVGNSNNSRISRPKTNDYGEPLYCYCNQVAYGEMVGCDGADCELEWFHLPCIGLETLPKGKWYCDDCKKKL"

# Biological target: T2, YAF9 (S. pombe) (S. pombe)
# Assay: affinity purification with mass spectrometry; TAP of baits TAP-tagged at their genes from S. pombe extracts; eluates on 6-18% gels, Coomassie, bands and slices identified by MALDI peptide mapping and LC-MS/MS; common background removed, A-index cut-off 1.75
row,binding,Binder
1,binds,"SWC2 (S. pombe) (protein, UniProt Q9P790 1-316) MSATESLVAGRTRRANAGNKMRELLEKEHLRMTQQNAEIEKEDEEYNIEEEEEAERDIEISSESSDEEAELKKLEEEGEEVEKILRDEERIKKRKIQKNRAANLQRTLQPPKRPTPSAASEVPKKKYKKIKVDPSARRTSSRMHTVLMAQSTETRLQEAKPRRKYTVSASANRQKGTMTQQQRFEEAAKTEAQNLSSLRNYVHLEEQRRLRLKRNAAKHRQLREPILKFISKTISTEDGREASNYYVAPLEHPLCHSAPPLQMPQHRAVECVITGKPAIYLDPVTQLPISNVQAFQQVREVYNQRYSWSAMLNLFH"

# Biological target: T3, SWC4 (S. pombe) (S. pombe)
# Assay: as above
row,binding,Binder
1,binds,"SWC2 (S. pombe) (protein, UniProt Q9P790 1-316) MSATESLVAGRTRRANAGNKMRELLEKEHLRMTQQNAEIEKEDEEYNIEEEEEAERDIEISSESSDEEAELKKLEEEGEEVEKILRDEERIKKRKIQKNRAANLQRTLQPPKRPTPSAASEVPKKKYKKIKVDPSARRTSSRMHTVLMAQSTETRLQEAKPRRKYTVSASANRQKGTMTQQQRFEEAAKTEAQNLSSLRNYVHLEEQRRLRLKRNAAKHRQLREPILKFISKTISTEDGREASNYYVAPLEHPLCHSAPPLQMPQHRAVECVITGKPAIYLDPVTQLPISNVQAFQQVREVYNQRYSWSAMLNLFH"
